Source: patent US10144730B2, “Inhibitors of c-Jun-N-terminal kinase (JNK)” (Dana-Farber Cancer Institute, Inc., priority 2011, dated 2018)
At least one structure is not confirmed: it was looked up by name or label, or the drawing left a doubt.

Test system: c-Jun phosphorylation
Test: LanthaScreen TR-FRET cell assay for c-Jun phosphorylation in HeLa cells
Type: cell-based
Conditions: HeLa and A375 formats, tested in parallel
Description: Phosphorylation was determined by measuring the time resolved FRET (TR-FRET) between a terbium labeled phospho-c-Jun specific antibody and GFP. The cells were plated in white tissue culture treated 384 well plates at a density of 10,000 cell per well in 32 μL assay medium (Opti-MEM®, supplemented with 0.5% charcoal/dextran-treated FBS, 100 U/ml penicillin and 100 μg/ml streptomycin, 0.1 mM nonessential amino acids, 1 mM sodium pyruvate, 25 mM Hepes, pH 7.3, and lacking phenol red). After overnight incubation, cells were pretreated for 90 minutes with compound (at indicated concentration) diluted in 4 μL assay buffer followed by 30 min of stimulation with 5 ng/ml of TNF-α in 4 μL assay buffer (final assay volume was 40 μl). […] After allowing the assay to equilibrate for 60 minutes at room temperature, TR-FRET emission ratios were determined on a BMG Pherastar fluorescence plate reader (BMG Labtech, Cary, N.C.) using the following parameters: excitation at 340 nm; emission at 520 nm and 490 nm; 100 μs lag time; 200 μs integration time; and emission ratio=Em520/Em490. All data were analyzed and plotted using Graphpad Prism 4. […]

In the case of `Oc1c2ccccc2c2c3c(cccc13)N=N2` [SP-600125, reference compound], the “IC50's for c-Jun phosphorylation in both cellular assay formats” value is reported as “micromolar range”.
